In PMC5855539:
Results are given in words; binding and its absence hold for the method and conditions named. For some assays here: A result given as binding can be weak or reduced; the word gives no strength. For some assays here: Binding seen in cells or lysates may run through a third protein. For some assays here: Where a sequence is shown, tags or fusion partners need not be part of it. One block for each molecule: values may come before it.

Experiments:
[1] = target: T1, PmDAM4 (BiFC fusion) (Prunus mume) (UniProt G1UE22); assay: split reporter; split YFP (YFP^N and YFP^C fusions) co-expressed in N. benthamiana leaves by agroinfiltration; confocal microscopy 2-3 days post-infiltration, YFP excited at 514 nm; in the rows the binder is the YFP^N fusion and the target the YFP^C fusion
T1 sequence: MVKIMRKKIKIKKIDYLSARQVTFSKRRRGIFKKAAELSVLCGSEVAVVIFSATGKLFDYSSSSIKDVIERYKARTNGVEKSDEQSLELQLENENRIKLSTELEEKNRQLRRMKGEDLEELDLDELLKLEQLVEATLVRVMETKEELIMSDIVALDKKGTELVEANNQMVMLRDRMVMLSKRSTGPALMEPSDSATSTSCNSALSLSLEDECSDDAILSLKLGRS

PmDAM1 (Prunus mume) = target: T2, PmDAM1 (Prunus mume) (UniProt G1UE19); assay: two-hybrid; pGBKT7 baits in Y2H gold mated with pGADT7 preys in Y187; dilutions 1, 1/10, 1/100, 1/1000 on DDO and SD/-Leu/-Trp/-His/-Ade/X-α-Gal/Aba plates, 30 °C, 3-5 days; in triplicate
T2 sequence: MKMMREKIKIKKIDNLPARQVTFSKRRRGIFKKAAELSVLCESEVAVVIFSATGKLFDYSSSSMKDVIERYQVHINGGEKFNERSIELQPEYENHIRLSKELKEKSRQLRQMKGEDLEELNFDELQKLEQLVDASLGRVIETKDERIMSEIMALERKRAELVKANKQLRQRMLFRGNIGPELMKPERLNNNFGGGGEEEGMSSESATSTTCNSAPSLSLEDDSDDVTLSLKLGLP

[2] = target: T3, PmDAM6 (BiFC fusion) (Prunus mume) (UniProt B9A1S9); assay: split reporter; split YFP (YFP^N and YFP^C fusions) co-expressed in N. benthamiana leaves by agroinfiltration; confocal microscopy 2-3 days post-infiltration, YFP excited at 514 nm; in the rows the binder is the YFP^N fusion and the target the YFP^C fusion
T3 sequence: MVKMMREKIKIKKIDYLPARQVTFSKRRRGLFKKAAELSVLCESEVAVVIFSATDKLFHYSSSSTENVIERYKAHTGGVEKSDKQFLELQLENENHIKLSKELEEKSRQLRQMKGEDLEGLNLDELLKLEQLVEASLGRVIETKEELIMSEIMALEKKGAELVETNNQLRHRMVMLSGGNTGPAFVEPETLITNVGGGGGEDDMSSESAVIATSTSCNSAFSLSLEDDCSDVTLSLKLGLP

PmCBF1 (Prunus mume) = assay: two-hybrid; pGBKT7 baits in Y2H gold mated with pGADT7 preys in Y187; dilutions 1, 1/10, 1/100, 1/1000 on DDO and SD/-Leu/-Trp/-His/-Ade/X-α-Gal/Aba plates, 30 °C, 3-5 days; in triplicate
[3] = target: PmCBF1 (BiFC fusion) (Prunus mume); assay: split reporter; split YFP (YFP^N and YFP^C fusions) co-expressed in N. benthamiana leaves by agroinfiltration; confocal microscopy 2-3 days post-infiltration, YFP excited at 514 nm; in the rows the binder is the YFP^N fusion and the target the YFP^C fusion
[4] = target: PmCBF4 (BiFC fusion) (Prunus mume); assay: as above

Molecule: PmCBF1 (BiFC fusion) (Prunus mume)
- binding [1]: no binding

Molecule: PmCBF1 (Prunus mume)
- binding (PmDAM1 (Prunus mume)): binds

B1: PmDAM5 (protein, UniProt G1UE18 1-234)
chain: MMNKIKIKKIDYLPARQVTFSKRRRGLFKKAAELSVLCESEVAVVIFSATSKLFDYSSSSTKDVIERYNADMNGVEKSNNQEIELQLENENHIKLSKELEKTSHQLRQMKGEDLEGLNLDELLKLEQLVEASLGRVMETKEELIKSEIMELERKGAELVEANSQLRQTMVMLSGGNTGPALMDPERLNNNIEGGGEEEGMSAESAISTTCNSAVSLSLEDDSSDEVTLSLKLGR
- binding (PmCBF1 (Prunus mume)): no binding

B2: PmDAM4 (protein, UniProt G1UE22 1-225)
chain: T1 sequence
- binding (PmCBF1 (Prunus mume)): no binding

B5: PmDAM1 (BiFC fusion) (protein, UniProt G1UE19 1-235)
chain: T2 sequence
- binding [3]: binds
- binding [4]: no binding

B6: PmDAM2 (protein, UniProt G1UE20 1-240)
chain: MVKTMRKKIKIKKIDYLPARQVTFSKRRRGIFKKAEELSVLCESEVAVVIFSATGKLFDYSSSSTKNVVERYKAHTNGVEKSDEPSVELQLEIENQIRLNKELAEKSRQLRQMRGEDLEKLNIDELQKLEQLVDASLGRVIETKEELIMSEIMALERKGAELVEANNQLRQRMVMLSRGNIGPGLTEPERFINNIGDGGEEGMSSESATNATISSCSSGLSLSLEDDCSDVTLALKLGLP
- binding (PmCBF1 (Prunus mume)): binds weakly

B7: PmDAM2 (BiFC fusion) (protein, UniProt G1UE20 1-240)
chain: B6 chain
- binding [3]: binds
- binding [4]: no binding

The remaining lines, values ahead:

- binding [2]: no binding
Molecule: PmCBF4 (BiFC fusion) (Prunus mume)

- binding (PmCBF1 (Prunus mume)): binds weakly
B3: PmDAM6 (protein, UniProt B9A1S9 1-241)
chain: T3 sequence

- binding (PmCBF1 (Prunus mume)): binds
B4: PmDAM1 (protein, UniProt G1UE19 1-235)
chain: T2 sequence

- binding (PmCBF1 (Prunus mume)): no binding
B8: PmDAM3 (protein, UniProt G1UE21 1-235)
chain: MMRKKIKIKKIDCLPARQVTFSKRRRGIFKKAAELSVLCESKVAVVIFSATGKLFDYSSSSIKDVIESYKAHKNGVKKSDEPSVELQLENENHIGLSKELEEKSHQLRQQMKAEDLEELNFDELQKLEQLVDTSLSRVIETKEELRMSEIMALERKGAELVEANNQLKQTVMLSGGNTGPTLMDPERLNDNVGGGGEEEGMSSESAISTTCNSALSLSLGDDSDDVTLSLELGLP

- binding [3]: no binding
B9: PmDAM3 (BiFC fusion) (protein, UniProt G1UE21 1-235)
chain: B8 chain
